For at least one compound, name, drawing or mass did not settle the structure.
System: podocyte
Experiment: Effect of retinoic acid on podocyte differentiation, normal or pressurized in the biological environment simulating apparatus
Assay type: cell-based

## CC1=C(/C=C/C(C)=C/C=C/C(C)=C/C(=O)O)C(C)(C)CCC1 [retinoic acid]
Pressure of 4 mmHg applied, compared with normal state, FIGS. 5A and 5B
  differentiation of podocyte under applied pressure: tends to induce the differentiation of podocyte even when the pressure is applied
Retinoic acid 0 μM, 0.5 μM, 1 μM, 4 mmHg versus no pressure, FIG. 5A
  amount of the differentiation marker of the podocyte (synaptopodin), pressurized versus normal condition: smaller under the pressurized condition than under the normal condition
Retinoic acid 0 μM, 0.5 μM, 1 μM, no pressure or 4 mmHg, FIG. 5A
  amount of the podocyte differentiation marker (synaptopodin): increased as the concertation of the retinoic acid is increased
Retinoic acid 0 μM, 0.5 μM, 1 μM, no pressure or 4 mmHg, FIG. 5B
  transcription factor of podocyte differentiation (KLF 15): shows the same tendency as that shown in FIG. 5A

— patent US20200333328A1, “APPARATUS AND METHOD FOR SIMULATING BIOLOGICAL CONDITION USING ROTATIONAL FORCE” (SNU R&DB Foundation, priority 2017, published 2020)
